Literature values, collected in patent US11254685B2, “Abuse-resistant long-acting release opioid prodrugs” (priority 2017, dated 2022).
Some entries share one result that the patent states for a list of compounds. At least one compound was matched to its structure with a doubt left.

conditions: fatty acid solutions; Vorum et al. 1992; cited from earlier work

| SMILES | concentration at which solutions showed a tendency to aggregation |
| --- | --- |
| CCCCCCCCCCCCCCCC(=O)O [Palmitate] | below 1 μM |
| CCCCCCCCCCCCCCCCCC(=O)O [stearate] | below 1 μM |
| CCCCCCCC/C=C\CCCCCCCC(=O)O [oleate] | below 1 μM |
